Patent publication US20250243278A1
No constants are given. Whether binding was seen depends on the method and setting. Binding can be weak; no strength is given.

What was measured:
[1] = target: cynomolgus B7H3 (cynomolgus); experiment: ELISA on cynomolgus B7H3, OD450
[2] = target: cynomolgus B7H3 (cynomolgus); experiment: ELISA, VHH on cynomolgus B7H3 (FIG. 1B)

| Binder | binding [1] | binding [2] |
| --- | --- | --- |
| 5E8 VHH (VHH) VHH: QVKLEESGGGLVQAGGSLKLSCAASGRTFSSDSMAWFREAPGKARGFVAVVSRSAGSTWYEDSVKGRFTISRDNAKNTVYLQMNSLKPEDTAVYYCAATDIATMPWLMVSSRYDYWGQGTQVTVSS | binds | binds |
| 5H8 VHH (VHH) VHH: QVKLEESGGGQVQAGDSRTLSCVASGRTFSSDSMAWFREAPGKARGFVAVVSRSAGSTWYEDSVKGRFTISRDNAKNTVYLQMNSLKPEDTAVYYCAATDIATMPWLMVSSRYDYWGQGTQVTVSS | binds | binds |
| 6H4 VHH (VHH) VHH: QVQLQESGGDLVQPGGSLTLSCAASGGSFSSDSMGWFRQAPRKARGFVGAVTSAGSTWYEDSVKGRFTISRDNAKNTVYLQMNSLKPEDTAVYYCAATTIATMPWLMVSSRYAYWGQGTQVTVSS | binds | binds |
| 7F3 VHH (VHH) VHH: QVQLVDSGGGLVQAGDSLRLSCAASGRPFNSWSMGWFRQAPRKARGFVGAVTSAGSTWYEDSVKGRFTISRDNAKNTVYLQMNSLKPEDTAVYYCAATTIATMPWLMVSSRYAYWGQGTQVTVSS | binds | binds |
| 7H7 VHH (VHH) VHH: QVKLEESGGGLVQAGGSLRLSCAASGSTFSKYAMGWFRQAPRKARGFVGAVTSAGSTWYEDSVKGRFTISRDNAKNTVYLQMNSLKPEDTAVYYCAATTIATMPWLMVSSRYAYWGQGTQVTVSS | binds | binds |
| 14B12 VHH (VHH) VHH: QVQLVESGGGVVQAGGSLRLSCAASGRTFRNFGMGWFRQAPRKARGFVGAVTSAGSTWYEDSVKGRFTISRDNAKNTVYLQMNSLKPEDTAVYYCAATTIATMPWLMVSSRYAYWGQGTQVTVSS | binds | binds |
| 14C4 VHH (VHH) VHH: QVQLVESGGGVVQAGGSLRLSCAASGRTFSSYGMGWFRQAPRKARGFVGAVTSAGSTWYEDSVKGRFTISRDNAKNTVYLQMNSLKPEDTAVYYCAATTIATMPWLMVSSRYAYWGQGTQVTVSS | binds | binds |
| 18B5 VHH (VHH) VHH: QVQLQESGGGLVQAGGSLTLSCTASGITFSSDSMAWFREAPGKARGFVAVVSRSAGSTWYEDSVKGRFTISRDNAKNTVYLQMNSLKPEDTAVYYCAATDIATMPWLMVSSRYDYWGQGTQVTVSS | binds | binds |
| 19C10 VHH (VHH) VHH: QVQLVESGGGLVQAGGSLRLSCAASGSTFSKYAMGWFRQAPRKARGFVGAVTSAGSTWYEDSVKGRFTISRDNAKNTVYLQMNSLKPEDTAVYYCAATTIATMPWLMVSSRYAYWGQGTQVTVSS | binds | binds |
| 20C11 VHH (VHH) VHH: QVQLVESGGGLVQPGGSLRLSCAASELTLDYNIGWFRQAPRKARGFVGAVTSAGSTWYEDSVKGRFTISRDNAKNTVYLQMNSLKPEDTAVYYCAATTIATMPWLMVSSRYAYWGQGTQVTVSS | binds | binds |
| 21F11 VHH (VHH) VHH: QVQLVESGGGLVQPGGSLRLSCAASGDDFFTINAIDAIGWFRQAPRKARGFVGAVTSAGSTWYEDSVKGRFTISRDNAKNTVYLQMNSLKPEDTAVYYCAATTIATMPWLMVSSRYAYWGQGTQVTVSS | binds | binds |
